The other results are listed elsewhere or left out. Many values rest on one well or one pass, so single values are uncertain.
How the values were obtained:
MIA PaCa-2 parental = experiment: parental cell viability relative to untreated parental control; higher = more surviving cells; settings: treatment time: 9 days
MIA PaCa-2 persister = experiment: persister cell viability relative to untreated persister control; higher = more surviving persister cells; settings: treatment time: 9 days; cell state: persister (100 nM gemcitabine + 100 nM Torin1)

Row | SMILES | parental cell viability (MIA PaCa-2 parental) | persister cell viability (MIA PaCa-2 persister)
1 | CN(C)CC[C@H](CSc1ccccc1)Nc1ccc(S(=O)(=O)NC(=O)c2ccc(N3CCN(Cc4ccccc4-c4ccc(Cl)cc4)CC3)cc2)cc1[N+](=O)[O-] (inhibitor concentration: 3µM) | 98% | 25%
2 | Cc1c(F)cc(C(=O)NC2CC2)cc1-c1ccc(C(=O)NCC(C)(C)C)cn1 [Losmapimod] (inhibitor concentration: 10µM) | 95% | 97.5%
3 | C[C@@H]1COCCN1c1cc(=O)n2c(n1)N(Cc1cncc(Cl)c1)[C@H](C(F)(F)F)CC2 (inhibitor concentration: 10µM) | 75% | 15%
4 | CC(C)C[C@@H](C=O)NC(=O)[C@H](CC(C)C)NC(=O)[C@H](CC(C)C)NC(=O)OCc1ccccc1 (inhibitor concentration: 300nM) | 90% | 75%
5 | O=C(O)CSc1cc(NS(=O)(=O)c2ccc(Br)cc2)c2ccccc2c1O (inhibitor concentration: 10µM) | 98.5% | 96%
6 | O=C(Nc1ccc(Cl)cc1)c1cc2ccccc2cc1OP(=O)(O)O (inhibitor concentration: 1µM) | 92% | 103%
7 | CN1CCN(CCOc2cc(OC3CCOCC3)c3c(Nc4c(Cl)ccc5c4OCO5)ncnc3c2)CC1 [Saracatinib] (inhibitor concentration: 1µM) | 14% | 80%
8 | CNc1nc(-c2ccc3c(N)n[nH]c3c2)cc(N2C[C@@H](C(=O)NC3CCCCC3)CC[C@H]2C)n1 (inhibitor concentration: 10µM) | 102% | 400%
9 | N[C@@H]1CCCN(c2c(Br)cnc3[nH]cc(NC(=O)C4CC4)c23)C1 (inhibitor concentration: 100nM) | 60% | 25%

Part of the list above in a different format.
Row	SMILES	parental cell viability (MIA PaCa-2 parental)	persister cell viability (MIA PaCa-2 persister)
6	O=C(Nc1ccc(Cl)cc1)c1cc2ccccc2cc1OP(=O)(O)O (inhibitor concentration: 1µM)	92%	103%
7	CN1CCN(CCOc2cc(OC3CCOCC3)c3c(Nc4c(Cl)ccc5c4OCO5)ncnc3c2)CC1 [Saracatinib] (inhibitor concentration: 1µM)	14%	80%

From the supplement of paper PMC9671908
